{"source": "PubChem BioAssay AID200", "about": "(DTP/NCI, 2004)", "test_system": "B6C3F1 mice, B16 melanoma ip, median survival T/C", "test": "NCI In Vivo Anticancer Drug Screen. Data for tumor model B16 Melanoma (intraperitoneal) in B6C3F1 mice", "conditions": "T/C endpoint: median survival time, higher T/C = longer survival", "summary_of_the_method": "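Tumor-bearing mice received test compound; a separate group got vehicle only. Survival was then compared, with results reported as treated over control.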", "key": {"[1]": {"conditions": "dose: 400.0 mg/kg/injection, schedule: Q01DX009 (ip), vehicle: saline with Tween-80"}, "[2]": {"conditions": "dose: 400.0 mg/kg/injection, schedule: Q01DX009 (ip), vehicle: Klucel (hydroxypropylcellulose) (HPC)"}, "[3]": {"conditions": "dose: 100.0 mg/kg/injection, schedule: Q01DX009 (ip), vehicle: saline with Tween-80"}, "[4]": {"conditions": "dose: 200.0 mg/kg/injection, schedule: Q01DX009 (ip), vehicle: saline"}, "[5]": {"conditions": "dose: 400.0 mg/kg/injection, schedule: Q01DX009 (ip), vehicle: saline"}, "[6]": {"conditions": "dose: 200.0 mg/kg/injection, schedule: Q01DX009 (ip), vehicle: saline with Tween-80"}}, "note": "The list is a part of this screen's results and no random one: it is rich in T/C values a quarter to a half above the control, in often repeated tests (any T/C) and in doses without a T/C. Other doses and runs of a compound stand elsewhere. T/C is the treated group as % of the vehicle group. Some doses have a count of surviving animals in place of a T/C: the source holds a T/C of zero for them, seemingly a mark for toxic or unscored doses. Some doses without a T/C left all or most animals alive at the check, yet need not have been tolerated: the source hardly ever lists a survival T/C far under the control, and the zero likely stands for such cases as well. Counts of survivors are from the toxicity check (mostly the fifth day) where no day follows; animals may have died later. Schedule codes are those of the source, read here as Q, the interval in days (D) or hours (H), X, the number of doses. Some doses were run more than once; the results are listed from low to high. Where survival is the endpoint, the PubChem record calls one and a half times the control and up active, and a quarter to a half above the control has no call in these data; cut-offs in other NCI protocols can differ. *1 amine or outer side, *2 acyl side, *3 side chain or, on linkers, in order; H or OH if unused. Where a SMILES comes first, the peptide text is derived from it. Bridges are numbered along the chain shown (N, C = ends). Roman numbers before positions name the chains, in order. [ ]: non-standard residue; d: D form. The star is where a group is joined. ξ: configuration not given here. Quinaldoyl(3-OH,6-OMe) = COc1ccc2nc(C(=O)*)c(O)cc2c1; X6 = CCC(=O)OC1CC=NN([*:1])C1C(=O)[*:2]; X7 = CC(=O)OC1CC=NN([*:1])C1C(=O)[*:2]; ξNMeVal(3-OH) = CNC(C(=O)O)C(C)(C)O; Sar = CNCC(=O)O"}
{"smiles": "Nc1ccc2ccc(NS(=O)(=O)N3CCCCC3)cc2c1", "values": [{"measurement": "survivor count", "setting": "[1]", "value": "8 of 10"}]}
{"smiles": "CCC(=O)OC1CC=NN2C(=O)C(NC(=O)c3nc4ccc(OC)cc4cc3O)COC(=O)C(C(C)(C)O)N(C)C(=O)CN(C)C(=O)CNC(=O)C3C(OC(C)=O)CC=NN3C(=O)C(NC(=O)c3nc4ccc(OC)cc4cc3O)COC(=O)C(C(C)(C)O)N(C)C(=O)CN(C)C(=O)CNC(=O)C12", "note": "(centres undefined) (I: {Quinaldoyl(3-OH,6-OMe)}-S[X6]G[Sar][ξNMeVal(3-OH)] / II: {Quinaldoyl(3-OH,6-OMe)}-S[X7]G[Sar][ξNMeVal(3-OH)]; ester I:1-II:C, I:C-II:1; configuration not given here)", "values": [{"measurement": "T/C", "setting": "dose: 32.0 micrograms/kg/injection, schedule: Q01DX009 (ip), vehicle: saline", "value": "134 % of control"}, {"measurement": "T/C", "setting": "dose: 64.0 micrograms/kg/injection, schedule: Q01DX009 (ip), vehicle: saline", "value": "147 % of control"}]}
{"smiles": "CSc1cc(C)[o+]c(C)c1", "values": [{"measurement": "survivor count", "setting": "[2]", "value": "4 of 10"}]}
{"smiles": "COC(=O)[C@@]12OC[C@]34[C@H]([C@@H](O)[C@@H]1O)[C@@]1(C)CC(=O)C(OC(=O)CC(=O)OC5=C(C)[C@@H]6C[C@H]7OC(=O)[C@H](OC(=O)/C=C(\\C)C(C)C)[C@H]8[C@]9(C(=O)OC)OC[C@]78[C@H]([C@@H](O)[C@@H]9O)[C@@]6(C)CC5=O)=C(C)[C@@H]1C[C@H]3OC(=O)[C@H](OC(=O)/C=C(\\C)C(C)C)[C@@H]24", "values": [{"measurement": "T/C", "setting": "dose: 0.37 mg/kg/injection, schedule: Q01DX009 (ip), vehicle: saline + Tween-80 + alcohol", "value": "139 % of control"}, {"measurement": "T/C", "setting": "dose: 0.75 mg/kg/injection, schedule: Q01DX009 (ip), vehicle: saline + Tween-80 + alcohol", "value": "142 % of control"}, {"measurement": "survivor count", "setting": "dose: 3.0 mg/kg/injection, schedule: Q01DX009 (ip), vehicle: saline + Tween-80 + alcohol", "value": "1 of 10"}, {"measurement": "survivor count", "setting": "dose: 6.0 mg/kg/injection, schedule: Q01DX009 (ip), vehicle: saline + Tween-80 + alcohol", "value": "0 of 10"}]}
{"smiles": "N#Cc1c(N)[nH]c2ccc(Sc3ccccc3)cc12", "values": [{"measurement": "survivor count", "setting": "[3]", "value": "8 of 10"}]}
{"smiles": "Cc1cc(N2C(=O)CCSC2=S)ccc1Cl", "values": [{"measurement": "survivor count", "setting": "dose: 50.0 mg/kg/injection, schedule: Q01DX009 (ip), vehicle: Klucel (hydroxypropylcellulose) (HPC)", "value": "10 of 10"}, {"measurement": "survivor count", "setting": "[2]", "value": "3 of 10 and 9 of 10"}]}
{"smiles": "COC(=O)[C@@H]1c2cc3c(c(O)c2[C@@H](OC)C[C@@]1(C)O)C(=O)c1c(O)cc2c(c1C3=O)OC1O[C@@]2(C)[C@H](O)[C@@H](N(C)C)[C@@H]1O", "values": [{"measurement": "survivor count", "setting": "dose: 100.0 mg/kg/injection, schedule: Q01DX009 (ip), vehicle: saline", "value": "3 of 10"}, {"measurement": "survivor count", "setting": "[4]", "value": "1 of 10"}, {"measurement": "survivor count", "setting": "[5]", "value": "0 of 10"}]}
{"smiles": "CN(C)CSCN(C)C", "values": [{"measurement": "survivor count", "setting": "dose: 12.5 mg/kg/injection, schedule: Q01DX009 (ip), vehicle: saline with Tween-80", "value": "9 of 10"}]}
{"smiles": "O=Cc1ccc([N+](=O)[O-])s1", "values": [{"measurement": "survivor count", "setting": "[3]", "value": "0 of 10"}]}
{"smiles": "CC(C)CC(C(=O)O)N(C)C(=O)OC(C)(C)C", "note": "(centres undefined)", "values": [{"measurement": "survivor count", "setting": "[2]", "value": "10 of 10"}]}
{"smiles": "COc1cccc2c1C(=O)c1c(O)c3c(c(O)c1C2=O)C[C@@](O)(/C(C)=N\\O)C[C@@H]3OC1CC(N)C(O)C(C)O1", "note": "(some centres undefined)", "values": [{"measurement": "T/C", "setting": "dose: 3.0 mg/kg/injection, schedule: Q01DX009 (ip), vehicle: saline", "value": "148 % of control"}, {"measurement": "T/C", "setting": "dose: 25.0 mg/kg/injection, schedule: Q01DX009 (ip), vehicle: water", "value": "134 % of control"}, {"measurement": "survivor count", "setting": "dose: 50.0 mg/kg/injection, schedule: Q01DX009 (ip), vehicle: water", "value": "8 of 10"}]}
{"smiles": "O=C(Nc1ccc([N+](=O)[O-])cc1)Nc1nncs1", "values": [{"measurement": "T/C", "setting": "dose: 100.0 mg/kg/injection, schedule: Q01DX009 (ip), vehicle: distilled water + Tween-80, evaluated on day 45", "value": "132 % of control"}, {"measurement": "T/C", "setting": "dose: 100.0 mg/kg/injection, schedule: Q01DX009 (ip), vehicle: distilled water + Tween-80, evaluated on day 50", "value": "128 % of control"}, {"measurement": "T/C", "setting": "dose: 200.0 mg/kg/injection, schedule: Q01DX009 (ip), vehicle: distilled water + Tween-80", "value": "133 % of control"}, {"measurement": "survivor count", "setting": "dose: 400.0 mg/kg/injection, schedule: Q01DX009 (ip), vehicle: distilled water + Tween-80", "value": "8 of 10 and 10 of 10"}]}
{"smiles": "O=C1CN(CN2CCOCC2)C(=O)CN1CN1CCOCC1", "values": [{"measurement": "survivor count", "setting": "[1]", "value": "1 of 10"}]}
{"smiles": "O=C(O)CSc1c(Cl)c(=O)oc2ccc(Cl)cc12", "values": [{"measurement": "survivor count", "setting": "dose: 200.0 mg/kg/injection, schedule: Q01DX009 (ip), vehicle: Klucel (hydroxypropylcellulose) (HPC)", "value": "8 of 10"}]}
{"smiles": "CC1CN1P1(N2CC2C)=NP(N2CC2C)(N2CC2C)=NP(N2CC2C)(N2CC2C)=N1", "note": "(centres undefined)", "values": [{"measurement": "survivor count", "setting": "dose: 16.0 mg/kg/injection, schedule: Q02DX009 (ip), vehicle: saline", "value": "10 of 10"}, {"measurement": "T/C", "setting": "dose: 32.0 mg/kg/injection, schedule: Q01DX009 (ip), vehicle: saline", "value": "125 % of control"}]}
{"smiles": "O=C1C=C2C(=CCOC2O)O1", "note": "(centres undefined)", "values": [{"measurement": "survivor count", "setting": "dose: 4.0 mg/kg/injection, schedule: Q01DX009 (ip), vehicle: Klucel (hydroxypropylcellulose) (HPC)", "value": "4 of 10"}, {"measurement": "survivor count", "setting": "dose: 8.0 mg/kg/injection, schedule: Q01DX009 (ip), vehicle: Klucel (hydroxypropylcellulose) (HPC)", "value": "0 of 10"}]}
{"smiles": "Nc1nc(N)c2c(Cl)c(CNc3ccc(Cl)c(Cl)c3)ccc2n1", "values": [{"measurement": "T/C", "setting": "dose: 25.0 mg/kg/injection, schedule: Q01DX009 (ip), vehicle: saline with Tween-80", "value": "131 % of control"}, {"measurement": "survivor count", "setting": "dose: 50.0 mg/kg/injection, schedule: Q01DX009 (ip), vehicle: saline with Tween-80", "value": "10 of 10"}, {"measurement": "survivor count", "setting": "[3]", "value": "10 of 10"}]}
{"smiles": "CC(C)CC(NC(=O)OCc1ccccc1)C(=O)O", "note": "(centres undefined)", "values": [{"measurement": "survivor count", "setting": "[6]", "value": "10 of 10"}, {"measurement": "survivor count", "setting": "[1]", "value": "10 of 10"}]}
{"smiles": "C[Si](C)(CCl)N[Si](C)(C)CCl", "values": [{"measurement": "survivor count", "setting": "[6]", "value": "10 of 10"}, {"measurement": "survivor count", "setting": "[1]", "value": "10 of 10"}]}
{"smiles": "Clc1ncnc2c1ncn2C1CCCO1", "note": "(centres undefined)", "values": [{"measurement": "survivor count", "setting": "[4]", "value": "5 of 6"}, {"measurement": "survivor count", "setting": "[5]", "value": "0 of 6"}]}
